{
  "sequences": {"note": "Chains of the proteins cited; added tags and fusions are not shown. Lines headed by an entry give the natural chain unless they say otherwise; changes in a name come on top.", "UniProt Q9Y4G2": "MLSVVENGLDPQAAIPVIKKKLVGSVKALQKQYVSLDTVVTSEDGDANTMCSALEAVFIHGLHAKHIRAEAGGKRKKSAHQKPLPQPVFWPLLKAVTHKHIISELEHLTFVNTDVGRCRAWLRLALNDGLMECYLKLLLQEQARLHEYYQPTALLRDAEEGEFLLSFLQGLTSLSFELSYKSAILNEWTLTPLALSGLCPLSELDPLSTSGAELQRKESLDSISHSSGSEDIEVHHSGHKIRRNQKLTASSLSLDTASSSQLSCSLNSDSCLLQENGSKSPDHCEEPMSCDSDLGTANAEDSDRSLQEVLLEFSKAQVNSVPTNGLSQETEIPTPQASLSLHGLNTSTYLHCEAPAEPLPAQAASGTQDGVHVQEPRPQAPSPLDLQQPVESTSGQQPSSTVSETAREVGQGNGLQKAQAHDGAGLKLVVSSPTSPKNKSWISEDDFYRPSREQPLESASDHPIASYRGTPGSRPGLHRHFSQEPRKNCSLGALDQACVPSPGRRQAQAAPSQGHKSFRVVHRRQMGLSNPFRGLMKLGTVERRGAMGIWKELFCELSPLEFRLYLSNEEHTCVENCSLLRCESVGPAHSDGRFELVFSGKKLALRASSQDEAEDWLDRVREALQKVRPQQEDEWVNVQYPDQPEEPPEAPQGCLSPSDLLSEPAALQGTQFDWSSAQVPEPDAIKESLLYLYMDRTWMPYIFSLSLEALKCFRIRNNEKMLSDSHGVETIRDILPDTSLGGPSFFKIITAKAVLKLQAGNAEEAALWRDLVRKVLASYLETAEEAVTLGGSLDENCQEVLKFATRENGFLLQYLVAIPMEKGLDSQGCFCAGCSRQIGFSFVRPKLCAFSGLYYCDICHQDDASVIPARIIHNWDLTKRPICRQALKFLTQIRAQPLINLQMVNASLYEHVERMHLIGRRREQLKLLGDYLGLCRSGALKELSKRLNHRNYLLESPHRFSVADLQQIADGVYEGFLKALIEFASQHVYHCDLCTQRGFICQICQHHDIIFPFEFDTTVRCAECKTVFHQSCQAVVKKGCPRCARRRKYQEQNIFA", "UniProt P51149": "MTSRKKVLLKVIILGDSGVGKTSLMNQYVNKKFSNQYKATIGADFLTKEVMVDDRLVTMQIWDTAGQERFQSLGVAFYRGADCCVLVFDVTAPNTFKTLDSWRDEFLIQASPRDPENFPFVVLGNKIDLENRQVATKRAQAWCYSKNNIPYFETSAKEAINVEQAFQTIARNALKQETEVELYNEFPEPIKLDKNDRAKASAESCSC", "UniProt P0DTC3": "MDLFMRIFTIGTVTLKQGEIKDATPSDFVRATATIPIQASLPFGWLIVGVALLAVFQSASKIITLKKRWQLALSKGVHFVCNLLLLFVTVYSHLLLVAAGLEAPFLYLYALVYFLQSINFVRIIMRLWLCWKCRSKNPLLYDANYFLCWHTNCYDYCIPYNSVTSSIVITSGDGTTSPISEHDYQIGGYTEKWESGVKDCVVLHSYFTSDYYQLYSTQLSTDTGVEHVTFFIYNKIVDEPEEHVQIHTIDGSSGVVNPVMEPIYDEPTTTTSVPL", "UniProt Q92609": "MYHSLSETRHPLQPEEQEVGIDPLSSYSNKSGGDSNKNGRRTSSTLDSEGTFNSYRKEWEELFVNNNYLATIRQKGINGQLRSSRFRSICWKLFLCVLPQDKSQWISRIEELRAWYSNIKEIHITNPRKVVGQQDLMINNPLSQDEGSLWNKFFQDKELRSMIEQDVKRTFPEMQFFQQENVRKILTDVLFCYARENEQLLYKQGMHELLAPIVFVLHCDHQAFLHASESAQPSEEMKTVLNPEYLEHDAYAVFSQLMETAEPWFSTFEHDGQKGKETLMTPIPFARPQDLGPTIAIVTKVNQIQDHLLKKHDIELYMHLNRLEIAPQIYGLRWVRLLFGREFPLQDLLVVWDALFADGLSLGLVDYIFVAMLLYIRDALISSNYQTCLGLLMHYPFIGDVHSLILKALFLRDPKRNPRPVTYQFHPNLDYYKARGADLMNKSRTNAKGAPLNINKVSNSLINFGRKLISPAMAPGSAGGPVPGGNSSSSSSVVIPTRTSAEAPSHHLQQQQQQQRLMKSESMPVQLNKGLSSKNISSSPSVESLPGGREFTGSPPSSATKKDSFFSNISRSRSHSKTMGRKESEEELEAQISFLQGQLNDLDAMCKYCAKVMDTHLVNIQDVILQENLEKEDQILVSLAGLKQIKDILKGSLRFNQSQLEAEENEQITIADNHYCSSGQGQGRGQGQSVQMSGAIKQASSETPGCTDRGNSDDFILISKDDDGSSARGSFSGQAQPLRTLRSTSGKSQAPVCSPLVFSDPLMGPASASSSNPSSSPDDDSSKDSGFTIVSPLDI"},
  "source": "paper PMC10918171",
  "experiment_in_all_cases": "co-IP",
  "key": {"TBC1D15": {"target": "T1, TBC1D15 (UniProt Q8TC07)", "T1 sequence": "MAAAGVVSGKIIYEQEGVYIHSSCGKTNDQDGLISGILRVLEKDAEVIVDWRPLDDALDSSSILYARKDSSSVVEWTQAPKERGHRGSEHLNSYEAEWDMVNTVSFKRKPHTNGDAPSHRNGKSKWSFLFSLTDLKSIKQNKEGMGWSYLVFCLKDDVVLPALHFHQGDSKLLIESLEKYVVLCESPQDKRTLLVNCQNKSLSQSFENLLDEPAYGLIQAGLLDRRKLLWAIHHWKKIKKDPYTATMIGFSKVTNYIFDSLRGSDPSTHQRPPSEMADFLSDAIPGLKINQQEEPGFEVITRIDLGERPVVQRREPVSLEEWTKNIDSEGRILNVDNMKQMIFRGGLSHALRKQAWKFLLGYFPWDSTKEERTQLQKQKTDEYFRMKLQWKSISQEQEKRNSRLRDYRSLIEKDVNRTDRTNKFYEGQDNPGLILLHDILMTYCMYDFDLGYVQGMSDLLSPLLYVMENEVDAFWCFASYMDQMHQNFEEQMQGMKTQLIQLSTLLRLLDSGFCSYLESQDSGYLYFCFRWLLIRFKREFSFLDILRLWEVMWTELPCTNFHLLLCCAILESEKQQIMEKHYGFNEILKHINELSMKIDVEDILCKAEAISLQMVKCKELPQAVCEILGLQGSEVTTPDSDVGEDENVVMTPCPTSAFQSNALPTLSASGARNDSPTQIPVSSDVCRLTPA"}, "FLAG-PLEKHM1": {"target": "FLAG-PLEKHM1 (UniProt Q9Y4G2)"}, "[1]": {"target": "T2, Vps39 as used in Supplementary Figs. S3J, S4J, S4K, S4L and as the link in Fig. 5H (UniProt Q96JC1)", "T2 sequence": "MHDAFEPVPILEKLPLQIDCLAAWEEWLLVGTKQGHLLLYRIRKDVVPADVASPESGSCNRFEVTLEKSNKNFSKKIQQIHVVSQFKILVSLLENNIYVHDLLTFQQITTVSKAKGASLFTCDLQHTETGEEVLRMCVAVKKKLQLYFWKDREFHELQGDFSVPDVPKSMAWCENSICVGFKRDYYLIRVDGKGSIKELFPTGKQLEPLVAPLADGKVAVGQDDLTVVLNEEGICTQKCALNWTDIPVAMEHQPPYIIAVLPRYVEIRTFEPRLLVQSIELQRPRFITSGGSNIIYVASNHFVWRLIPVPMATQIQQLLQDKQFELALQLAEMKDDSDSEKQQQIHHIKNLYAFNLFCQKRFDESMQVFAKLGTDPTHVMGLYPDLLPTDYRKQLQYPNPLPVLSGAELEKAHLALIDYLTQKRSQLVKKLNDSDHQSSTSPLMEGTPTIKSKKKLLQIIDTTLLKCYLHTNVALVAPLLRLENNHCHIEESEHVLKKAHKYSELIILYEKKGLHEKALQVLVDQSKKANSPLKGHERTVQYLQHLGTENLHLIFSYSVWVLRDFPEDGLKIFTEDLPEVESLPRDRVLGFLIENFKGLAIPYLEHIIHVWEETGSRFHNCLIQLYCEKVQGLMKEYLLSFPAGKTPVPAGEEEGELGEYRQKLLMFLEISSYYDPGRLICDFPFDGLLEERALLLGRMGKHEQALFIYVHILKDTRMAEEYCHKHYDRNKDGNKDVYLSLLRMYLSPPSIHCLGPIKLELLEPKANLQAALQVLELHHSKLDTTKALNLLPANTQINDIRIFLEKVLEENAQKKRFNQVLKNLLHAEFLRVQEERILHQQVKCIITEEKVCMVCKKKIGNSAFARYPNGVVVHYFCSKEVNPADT"}, "[2]": {"target": "Rab7 of human cells, precipitated with anti-Rab7 antibodies or pulled down by GST-RILP (human (endogenous in HeLa, HEK293T, A549)) (UniProt P51149)"}},
  "note": "These are yes or no findings as the source states them, for the method shown. In cells and extracts the contact can be indirect. Some entries that bind do so weakly or less than the wild type.",
  "data": [
    {"substance": "FLAG-Rab7 (from UniProt P51149 1-207)", "values": [
      {"measurement": "binding", "setting": "TBC1D15", "result": "binds"}
    ]},
    {"substance": "SARS-CoV-2 ORF3a (WT) (from UniProt P0DTC3 1-275)", "values": [
      {"measurement": "binding", "setting": "FLAG-PLEKHM1", "result": "binds"}
    ]},
    {"substance": "TBC1D5 as used in the co-IPs of Fig. 5H, 5J and Supplementary Figs. S4J, S4L (from UniProt Q92609 1-795)", "values": [
      {"measurement": "binding", "setting": "[1]", "result": "binds"}
    ]},
    {"substance": "endogenous PLEKHM1 (from UniProt Q9Y4G2 1-1056)", "values": [
      {"measurement": "binding", "setting": "[2]", "result": "binds"}
    ]}
  ]
}
